# Data from US8852954.
# Key:
# [1] = tested on: ANTI-FLAG M2 monoclonal antibody (mouse IgG), native (Mus musculus); assay: binding assay; conditions: RNA with 5'-dA5 (1-5), Northwestern blot, antibody bound to FLAG-BAP on PVDF, purified native protein, protein details: SIGMA F3165 Lot 086K6012, label: 5'-biotin
# [2] = tested on: anti-FLAG mouse IgG, denatured (SDS-PAGE heavy and light chains) (Mus musculus); assay: binding assay; conditions: RNA with 5'-dA5 (1-5), DNA at 6-9 and 35-38, 2'-OMe U10; Northwestern blot, 20 nM aptamer, 0.5 ug IgG after SDS-PAGE; no heavy or light chain signal; purified native protein; label: 5'-biotin; variant of MIG-m034
sequence,measurement,setting,value
AAAAACGCUGAAGAGAAGACGGAAGGAGACGAAGCGT [MIG-m042],binding result,"[1]; LNA at C6 G7 C35 G36, 2'-OMe U9, 3'-dT37, 10 nM aptamer, variant of MIG-m034",binds
AAAAAGCGCUGAAGAGAAGACGGAAGGAGACGAAGCGC [MIG-m041],binding result,"[1]; DNA at 6-9 and 35-38, 2'-OMe U10, 10 nM (20 nM in Example 5) aptamer, variant of MIG-m034",binds
same,binding result,[2],no binding
AAAAACGCUGAAGAGAAGACGGAAGGAGACGAAGCGT [MIG-m034],binding result,"[1]; LNA at C6 G7 C35 G36, 3'-dT37, 20 nM aptamer",binds

# Construct, isoform or probe ends are uncertain for at least one entry. For some of these results: A negative result means that nothing was seen under these conditions.
